From publication PMC10535880, “Caco-2 Cell Sheet Partially Laminated with HT29-MTX Cells as a Novel In Vitro Model of Gut Epithelium Drug Permeability” (Pharmaceutics, 2023) come the findings set out here.

Series [1] is described as follows: in vitro. Particulars: human.
Series [2] can be described thus: in vitro. Particulars: human, Caco-2.
The subject of series [3] is Caco-2/HT29-MTX partially laminated model. Particulars: 9:1 ratio of Caco-2/HT29-MTX.

As a reminder, the Papp is the rate of passage across a membrane or cell layer, normalised by area and donor concentration. A higher Papp goes with ready permeation. For the molecule `CC(C)NCC(O)COc1ccc(CC(N)=O)cc1` (stereo not drawn) [atenolol], the Papp at 2 h, 200 μM in “in vitro [1]” came to 510 ± 240 ×10⁻⁶ cm/s; in the series “in vitro [2]”, 270 ± 220 ×10⁻⁶ cm/s. Moreover, the “Papp compared to that in the Caco-2 monolayer” value in series [3] was “not significantly different”.
